# From PubChem BioAssay AID1688 (National Center for Advancing Translational Sciences (NCATS), 2009)
# In all, about 220,000 compounds went through this assay and about 2,400 (1.1%) were called active. The inconclusive results got no clear call from the source; some entries with a clear call stand among them for comparison. The call rests on the fitted dose curve; in most records, active means well fitted inhibition curve with a large enough effect; inconclusive means small, poorly fitted or top-dose-only effect, or effect the other way; inactive means no such curve, though single readings can be large or run the other way. Potencies of inconclusive entries are doubtful fits and often do not repeat.
# Assay: qHTS Multiplex Assay to Identify Dual Action Probes in a Cell Model of Huntington: Aggregate Formation (GFP); further: nearly all actives have a fitted effect of over 60% in size
# Settings: PC12 HttQ103-GFP aggregates, Acumen cytometry, 40 h; activity change, negative = inhibition: at 46.1 µM (top of the series) unless noted
# Method in brief: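 PC12 cells with ecdysone-inducible HTT exon1 Q103-GFP, induced by 100 nM tebufenozide, given compounds in a concentration series. GFP aggregates (1–25 um, 6 SD above background) counted in lysates by laser-scanning cytometry, 488 nm excitation.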
# On the % scale 0 is the no-effect control and ±100 the full control effect; potency means the concentration at half of the fitted maximal effect.
SMILES,Potency,"activity change, negative = inhibition"
CCCOc1c(Br)cc(C2C3=C(CCCC3=O)N(CC)C3=C2C(=O)CCC3)cc1OC,inactive,–
Cc1c(C(=O)NCc2cccnc2)oc2ccc(S(=O)(=O)N3CCCCCC3)cc12,"inconclusive: 20 µM [inhibitor, partial curve]",–
Cc1ccc(C2CCN(C(=S)NC(C)(C)C)C2)cc1 (configuration not stated),"inconclusive: 25.1 µM [inhibitor, single point]",–
COc1ccc(NS(=O)(=O)c2cc(NC(=O)c3ccncc3)ccc2N2CCOCC2)cc1,inactive,–
COC(=O)CSc1nnc([C@H](CC(C)C)NC(=O)OC(C)(C)C)o1,"inconclusive: 5.62 µM [inhibitor, single point]",–
CCCOc1cccc(-c2cc(C(=O)NN)c3ccccc3n2)c1,"inconclusive: 12.6 µM [inhibitor, single point]",–
CNC(=S)N/N=C/c1cn(Cc2ccc(F)cc2)c2ccccc12,"inconclusive: 22.4 µM [activator, single point]",–
CC1CCC(C(=O)NC(C(=O)N2CCc3ccccc3C2)C(C)C)CC1 (configuration not stated),inactive,–
Cc1ccc(S(=O)(=O)Nc2cc(-c3nn(C)c(=O)c4ccccc34)ccc2N2CCOCC2)cc1,"inconclusive: 8.91 µM [activator, partial curve]",–
Nc1ccc(SC(F)(F)F)cc1C(=O)c1ccccc1,"inconclusive: 11.2 µM [activator, partial curve]",–
CCN(CC)c1ccc(C=O)c(OC)c1,–,inactive: -7.71% [at 9.22 µM]
CN(C)c1ccc(/C=C/C(=O)c2ccccc2)cc1[N+](=O)[O-],inactive,–
O=C(CSc1ccc(Cl)cc1)NN=C1CCCCCC1,inactive,–
O=C1CSC(=S)N1/N=C/c1cccnc1,active: 0.891 µM,–
Cc1ccccc1Nc1nc(NCc2ccco2)c2ccccc2n1,"inconclusive: 22.4 µM [inhibitor, single point]",–
CC(=O)Nc1ccc(NC(=O)c2c(C)nn(-c3ccccc3)c2Cl)cc1C,–,inactive: -5.65% [at 9.22 µM]
COCCNc1c(-c2ccc(O)cc2)nc2ccc(Cl)cn12,"inconclusive: 10 µM [activator, partial curve]",–
Cc1csc2c(NC3CCN(Cc4ccccc4)CC3)ncnc12,–,inactive: 25.8% [at 9.22 µM]
S=C(NC1CCCC1)N1CCN(C/C=C/c2ccccc2)CC1,"inconclusive: 2.82 µM [inhibitor, full curve]",–
O=C(O)/C(=C\c1ccc(Br)cc1)c1ccc(S(=O)(=O)N2CCCCC2)s1,"inconclusive: 6.31 µM [inhibitor, single point]",–
c1ccc(CN2CCN(c3nc(NCc4ccco4)c4ccccc4n3)CC2)cc1,"inconclusive: 0.562 µM [inhibitor, full curve, poor fit]",–
CCOc1cc(S(=O)(=O)Nc2ccccc2CC)ccc1Cl,"inconclusive: 35.5 µM [inhibitor, single point]",–
O=C(Cn1nnc(-c2cccs2)n1)N1CCOCC1,inactive,–
Cc1ccc[n+](CC(=O)Nc2ccc([N+](=O)[O-])cc2Cl)c1,inactive,–

# A few values from above.
# Entry of COc1ccc(NS(=O)(=O)c2cc(NC(=O)c3ccncc3)ccc2N2CCOCC2)cc1 under Potency: inactive
# Entry of S=C(NC1CCCC1)N1CCN(C/C=C/c2ccccc2)CC1 under Potency: inconclusive: 2.82 µM [inhibitor, full curve]
# Entry of CNC(=S)N/N=C/c1cn(Cc2ccc(F)cc2)c2ccccc12 under Potency: inconclusive: 22.4 µM [activator, single point]
# Entry of COCCNc1c(-c2ccc(O)cc2)nc2ccc(Cl)cn12 under Potency: inconclusive: 10 µM [activator, partial curve]
# Entry of Nc1ccc(SC(F)(F)F)cc1C(=O)c1ccccc1 under Potency: inconclusive: 11.2 µM [activator, partial curve]

# (list continues)

SMILES,Potency,"activity change, negative = inhibition"
CC1=C(C(=O)Nc2ccccc2)C(c2cccs2)n2nnnc2N1 (configuration not stated),inactive,–
COc1ccc(NS(=O)(=O)c2cccc3cccnc23)cc1,active: 12.6 µM,–
COC(=O)C1=CN(C)C=C(C(=O)OC)C1c1ccccc1Cl,inactive,–
NS(=O)(=O)c1ccc(N=Nc2c(-c3ccccc3)[nH]n(-c3nc(-c4ccccc4)cs3)c2=O)cc1,active: 5.62 µM,–
CN(NC(=O)COc1ccccc1)c1ccccc1,"inconclusive: 3.55 µM [inhibitor, single point]",–
C#CCCCCCCC#CCN(C)C,inactive,–
O=C(CSc1nc2[nH]ncc2c(=O)n1-c1ccccc1Cl)N1CCCC1,inactive,–
CCCCCSc1nnc(-c2ccccc2NC(C)=O)c(=O)[nH]1,inactive,–
Cc1nn(C)c(C)c1NC(=O)c1ccc(Cl)cc1,"inconclusive: 1.78 µM [activator, partial curve]",–
COc1ccc2nc(NC(=O)C3CCN(S(=O)(=O)c4cccc5nsnc45)CC3)sc2c1,"inconclusive: 15.8 µM [inhibitor, single point]",–
CC(C)CC(=O)Nc1nnc(-c2ccco2)s1,"inconclusive: 0.562 µM [inhibitor, full curve, poor fit]",–
CCCCC(=O)Nc1cccc(-c2nn3c(C)nnc3s2)c1,"inconclusive: 12.6 µM [activator, single point]",–
Cc1cc(S(=O)(=O)Nc2ccc(F)cc2)c(C)s1,"inconclusive: 3.16 µM [inhibitor, single point]",–
Cc1ccc(-c2nc3ccccc3c(C(=O)NCc3cccs3)c2C)cc1,inactive,–
CC(/C=C/c1ccccc1)=N\NC(=O)c1cc(C)[nH]n1,inactive,–
COc1ccc(S(=O)(=O)Cc2ccc(C(=O)N3CCN(c4cccc(C)c4C)CC3)o2)cc1,"inconclusive: 14.1 µM [inhibitor, single point]",–
COc1ccc(N(C)C(=O)c2ccc3nc(-c4ccccc4)c(-c4ccccc4)nc3c2)cc1,"inconclusive: 35.5 µM [inhibitor, single point]",–
Cc1csc(SCCn2c(Br)nc3c2c(=O)[nH]c(=O)n3C)n1,"inconclusive: 0.562 µM [activator, partial curve, poor fit]",–
CN(O)/C=N/C(=S)Nc1ccc(Cl)cc1Cl,"inconclusive: 35.5 µM [activator, single point]",–
CCOC(=O)c1cc(-c2ccccc2)nc2c1c(C)nn2-c1ccccn1,"inconclusive: 35.5 µM [inhibitor, single point]",–
Cc1ccc(Cn2c(-n3nc(C)cc3C)nc3c2c(=O)[nH]c(=O)n3C)cc1,inactive,–
C=CCN(CC=C)S(=O)(=O)c1ccc(NC(=S)NC(=O)/C=C/c2ccc(C)cc2)cc1,inactive,–
COC(=O)C1CC(c2c(OC)cc(OC)cc2OC)=NO1 (configuration not stated),"inconclusive: 0.501 µM [activator, full curve, poor fit]",–
O=C(O)CSCC(=O)Nc1cccc(C(F)(F)F)c1,inactive,–

SMILES,Potency,"activity change, negative = inhibition"
CCN(CCO)c1nc(SC)nc2c1sc1nc(-c3ccco3)c3c(c12)CCC3,"inconclusive: 15.8 µM [inhibitor, single point]",–
CC1=C(C#N)C(c2cccnc2)C2=C(CC(c3ccc(Cl)cc3)CC2=O)N1 (configuration not stated),"inconclusive: 35.5 µM [activator, partial curve]",–
CS(=O)(=O)NCCn1ccc2ccccc21,"inconclusive: 2 µM [activator, partial curve]",–
COc1ccc2c(c1)C(c1ccccc1)=NNC(c1ccco1)=N2,"inconclusive: 15.8 µM [inhibitor, single point]",–
COc1ccc(N2C(=O)CC(Nc3ccc(N4CCOCC4)cc3)C2=O)c(OC)c1 (configuration not stated),inactive,–
CC1CCN(C(=O)c2ccc(S(=O)(=O)Cc3cccc(F)c3)c([N+](=O)[O-])c2)CC1,"inconclusive: 25.1 µM [inhibitor, single point]",–
CC1=C(C(=O)NCc2ccccc2)C(c2cc(Br)cc(Br)c2OC(C)C)NC(=O)N1 (configuration not stated),"inconclusive: 20 µM [inhibitor, single point]",–
O=C(CCN1C(=O)/C(=C\c2cccs2)SC1=S)NC1=NCCS1,"inconclusive: 14.1 µM [activator, single point]",–
O=C(O)CC(CCc1ccccc1)OC1OC(CO)C(O)C(O)C1O (configuration not stated),–,inactive: 6.59% [at 9.22 µM]
Cc1ccc(Cn2c(NCCc3ccccc3)nc3c2c(=O)n(C)c(=O)n3C)cc1,"inconclusive: 35.5 µM [inhibitor, single point]",–
CCCn1c(=O)c(C(=O)NNS(=O)(=O)c2ccc(Cl)cc2)c(O)c2ccccc21,active: 14.1 µM,–
CN1/C(=C\C(=S)NC(=O)c2ccc([N+](=O)[O-])cc2)C(C)(C)c2ccccc21,"inconclusive: 7.08 µM [inhibitor, partial curve]",–
CCN(CC)C1CC(=O)N(c2cccc(C)c2)C1=O (configuration not stated),"inconclusive: 31.6 µM [inhibitor, single point]",–
CCC(OC(=O)c1ccco1)C(=O)NCc1ccco1 (configuration not stated),"inconclusive: 3.16 µM [inhibitor, partial curve]",–
COc1ccc([N+](=O)[O-])cc1NC(=O)CC1SC(=Nc2cccc(C)c2C)N(/N=C(\C)c2ccc(C)cc2)C1=O (configuration not stated),"inconclusive: 0.501 µM [activator, full curve, poor fit]",–
CCOC(=O)C1=C(C)NC(C)=C(C(=O)OCC)C1C(=O)OCC(=O)N(CC)C1CCS(=O)(=O)C1 (configuration not stated),inactive,–
CC(C)NC(=O)c1ccc(Sc2ccccc2)c([N+](=O)[O-])c1,"inconclusive: 1 µM [inhibitor, full curve]",–
CCCCCOc1ccc(CSC(=N)N)cc1[N+](=O)[O-],inactive,–
Cc1c(Cl)ccc2c1NC(=O)[C@]21N[C@@H](Cc2ccccc2)[C@H]2C(=O)N(c3ccc(F)cc3)C(=O)[C@H]21,"inconclusive: 15.8 µM [inhibitor, single point]",–
COc1ccccc1N1CCN(/N=C\c2ccc(C)o2)CC1,"inconclusive: 5.62 µM [inhibitor, single point]",–
O=c1c2ccccc2nc(/C=C/c2ccc3c(c2)OCO3)n1CCCO,–,inactive: 11.8% [at 9.22 µM]
Cc1ccc(NC(=O)COC(=O)Cn2cnc3ccccc32)cc1S(=O)(=O)N(C)C,inactive,–
CCC(C)NCCCCOc1cc(C)cc(C(C)C)c1 (configuration not stated),"inconclusive: 22.4 µM [inhibitor, single point]",–
CCOc1ccc(S(=O)(=O)N(C)c2ccc(OCC(=O)Nc3nccs3)cc2)cc1,inactive,–
